According to US20250172543A1, “HIGH DENSITY 3D HEPATOCYTE SPHEROID PLATFORM FOR DRUG ADME STUDIES” (Discovery Life Sciences, LLC, priority 2018, published 2025):

Key:
[1] = test system: PHHs grown in suspension format; experiment: Clearance measurement with PHHs grown in suspension format; settings: FIGS. 8A-I
[2] = actual in vivo clearance for comparison; cited from earlier work
[3] = test system: 3D primary human hepatocyte (PHH) high density spheroids; experiment: 3D PHH high density spheroid drug clearance assay; format: in vitro ADME; settings: 0.1 μM substrate, 6-well spheroid insert, in vivo hepatic clearance predicted from in vitro Clint by well stirred model

Nc1nc2ccc(OC(F)(F)F)cc2s1 [Riluzole]
Measurability of clearance in suspension hepatocytes [1]: unable to measure
In Vivo CLnonrenal [2]: 2.05
Predicted CLh, 3D HD Spheroids [3]: 1.62
